The target in this assay is mCherry-IQSec1 (human) (UniProt Q6DN90). In words: co-IP; lysates of HEK-293 cells co-expressing mCherry-IQSec1 (WT or mutants) and GFP-ORP3 (WT or mutants); immunoprecipitated with anti-mCherry antibody and protein A beads, NP-40 lysis buffer, 4°C; probed for GFP.

Protein sequences, listed by entry. Tags and fused reporters are not part of them. Lines headed by an entry give the natural chain unless they say otherwise; changes in a name come on top. Chains listed by the source or under a name are the forms on record and can include a tag or linker.
mCherry-IQSec1 (Q6DN90, form named): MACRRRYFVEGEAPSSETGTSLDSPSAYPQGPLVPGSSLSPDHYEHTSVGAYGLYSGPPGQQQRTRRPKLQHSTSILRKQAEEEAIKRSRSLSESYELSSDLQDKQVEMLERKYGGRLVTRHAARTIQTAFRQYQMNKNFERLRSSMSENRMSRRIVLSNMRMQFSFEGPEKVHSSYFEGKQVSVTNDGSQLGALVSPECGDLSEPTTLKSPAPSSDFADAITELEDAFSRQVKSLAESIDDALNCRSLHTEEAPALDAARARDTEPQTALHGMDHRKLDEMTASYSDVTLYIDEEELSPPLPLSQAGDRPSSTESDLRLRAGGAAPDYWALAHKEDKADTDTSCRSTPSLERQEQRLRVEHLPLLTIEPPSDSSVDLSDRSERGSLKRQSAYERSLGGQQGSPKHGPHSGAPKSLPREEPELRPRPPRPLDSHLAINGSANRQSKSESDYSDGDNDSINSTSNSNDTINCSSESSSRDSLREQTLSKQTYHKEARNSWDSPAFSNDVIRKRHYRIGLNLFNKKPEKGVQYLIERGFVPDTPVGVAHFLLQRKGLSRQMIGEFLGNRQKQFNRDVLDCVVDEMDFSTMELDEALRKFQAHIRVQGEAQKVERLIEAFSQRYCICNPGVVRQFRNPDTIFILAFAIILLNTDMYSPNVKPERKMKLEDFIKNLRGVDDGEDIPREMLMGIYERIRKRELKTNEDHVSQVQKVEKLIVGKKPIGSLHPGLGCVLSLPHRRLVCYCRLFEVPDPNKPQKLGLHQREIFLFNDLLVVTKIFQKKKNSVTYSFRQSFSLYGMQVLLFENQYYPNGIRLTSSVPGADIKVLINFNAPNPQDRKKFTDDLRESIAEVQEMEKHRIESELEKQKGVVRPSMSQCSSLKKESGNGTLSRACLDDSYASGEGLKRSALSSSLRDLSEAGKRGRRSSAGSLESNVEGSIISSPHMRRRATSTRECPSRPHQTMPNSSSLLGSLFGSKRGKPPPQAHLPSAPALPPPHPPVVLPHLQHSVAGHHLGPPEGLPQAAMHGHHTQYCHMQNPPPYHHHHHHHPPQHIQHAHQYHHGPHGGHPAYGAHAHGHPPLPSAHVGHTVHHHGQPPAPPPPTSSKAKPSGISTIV
UniProt Q9H4L5: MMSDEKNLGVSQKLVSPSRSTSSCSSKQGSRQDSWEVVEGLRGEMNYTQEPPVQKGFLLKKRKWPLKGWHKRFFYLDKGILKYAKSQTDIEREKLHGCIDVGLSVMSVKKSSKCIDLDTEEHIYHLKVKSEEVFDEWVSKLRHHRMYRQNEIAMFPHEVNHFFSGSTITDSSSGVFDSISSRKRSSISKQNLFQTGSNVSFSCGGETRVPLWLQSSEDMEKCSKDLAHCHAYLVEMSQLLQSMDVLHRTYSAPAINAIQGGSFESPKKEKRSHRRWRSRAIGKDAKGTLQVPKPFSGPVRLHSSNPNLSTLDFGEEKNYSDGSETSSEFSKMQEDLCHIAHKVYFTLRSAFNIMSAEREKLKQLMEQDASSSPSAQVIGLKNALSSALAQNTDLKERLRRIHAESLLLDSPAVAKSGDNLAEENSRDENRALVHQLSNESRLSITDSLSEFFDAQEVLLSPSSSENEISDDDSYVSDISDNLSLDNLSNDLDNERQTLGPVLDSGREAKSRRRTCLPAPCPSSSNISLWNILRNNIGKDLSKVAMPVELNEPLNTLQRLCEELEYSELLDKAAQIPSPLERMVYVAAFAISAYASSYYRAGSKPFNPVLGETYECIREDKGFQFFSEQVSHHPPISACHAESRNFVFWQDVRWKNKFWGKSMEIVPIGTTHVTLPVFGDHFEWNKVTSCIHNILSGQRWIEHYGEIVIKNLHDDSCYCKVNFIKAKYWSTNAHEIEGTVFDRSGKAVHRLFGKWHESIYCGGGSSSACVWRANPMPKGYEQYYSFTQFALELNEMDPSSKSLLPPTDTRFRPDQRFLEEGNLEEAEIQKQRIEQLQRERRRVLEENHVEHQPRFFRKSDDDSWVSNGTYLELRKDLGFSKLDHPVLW

Among the data in paper PMC7159923 are binding values, retold here.

These are yes or no findings as the source states them, for the method shown. Binding seen in cells or lysates may run through a third protein. A result given as binding can be weak or reduced; the word gives no strength.

As to GFP-ORP3Δ^FFAT (from UniProt Q9H4L5), the binding entry was “binds”.
